These results are taken from publication PMC9668335.

Protein sequences, listed by entry. Tags and fused reporters are not part of them.
UniProt Q96RK0: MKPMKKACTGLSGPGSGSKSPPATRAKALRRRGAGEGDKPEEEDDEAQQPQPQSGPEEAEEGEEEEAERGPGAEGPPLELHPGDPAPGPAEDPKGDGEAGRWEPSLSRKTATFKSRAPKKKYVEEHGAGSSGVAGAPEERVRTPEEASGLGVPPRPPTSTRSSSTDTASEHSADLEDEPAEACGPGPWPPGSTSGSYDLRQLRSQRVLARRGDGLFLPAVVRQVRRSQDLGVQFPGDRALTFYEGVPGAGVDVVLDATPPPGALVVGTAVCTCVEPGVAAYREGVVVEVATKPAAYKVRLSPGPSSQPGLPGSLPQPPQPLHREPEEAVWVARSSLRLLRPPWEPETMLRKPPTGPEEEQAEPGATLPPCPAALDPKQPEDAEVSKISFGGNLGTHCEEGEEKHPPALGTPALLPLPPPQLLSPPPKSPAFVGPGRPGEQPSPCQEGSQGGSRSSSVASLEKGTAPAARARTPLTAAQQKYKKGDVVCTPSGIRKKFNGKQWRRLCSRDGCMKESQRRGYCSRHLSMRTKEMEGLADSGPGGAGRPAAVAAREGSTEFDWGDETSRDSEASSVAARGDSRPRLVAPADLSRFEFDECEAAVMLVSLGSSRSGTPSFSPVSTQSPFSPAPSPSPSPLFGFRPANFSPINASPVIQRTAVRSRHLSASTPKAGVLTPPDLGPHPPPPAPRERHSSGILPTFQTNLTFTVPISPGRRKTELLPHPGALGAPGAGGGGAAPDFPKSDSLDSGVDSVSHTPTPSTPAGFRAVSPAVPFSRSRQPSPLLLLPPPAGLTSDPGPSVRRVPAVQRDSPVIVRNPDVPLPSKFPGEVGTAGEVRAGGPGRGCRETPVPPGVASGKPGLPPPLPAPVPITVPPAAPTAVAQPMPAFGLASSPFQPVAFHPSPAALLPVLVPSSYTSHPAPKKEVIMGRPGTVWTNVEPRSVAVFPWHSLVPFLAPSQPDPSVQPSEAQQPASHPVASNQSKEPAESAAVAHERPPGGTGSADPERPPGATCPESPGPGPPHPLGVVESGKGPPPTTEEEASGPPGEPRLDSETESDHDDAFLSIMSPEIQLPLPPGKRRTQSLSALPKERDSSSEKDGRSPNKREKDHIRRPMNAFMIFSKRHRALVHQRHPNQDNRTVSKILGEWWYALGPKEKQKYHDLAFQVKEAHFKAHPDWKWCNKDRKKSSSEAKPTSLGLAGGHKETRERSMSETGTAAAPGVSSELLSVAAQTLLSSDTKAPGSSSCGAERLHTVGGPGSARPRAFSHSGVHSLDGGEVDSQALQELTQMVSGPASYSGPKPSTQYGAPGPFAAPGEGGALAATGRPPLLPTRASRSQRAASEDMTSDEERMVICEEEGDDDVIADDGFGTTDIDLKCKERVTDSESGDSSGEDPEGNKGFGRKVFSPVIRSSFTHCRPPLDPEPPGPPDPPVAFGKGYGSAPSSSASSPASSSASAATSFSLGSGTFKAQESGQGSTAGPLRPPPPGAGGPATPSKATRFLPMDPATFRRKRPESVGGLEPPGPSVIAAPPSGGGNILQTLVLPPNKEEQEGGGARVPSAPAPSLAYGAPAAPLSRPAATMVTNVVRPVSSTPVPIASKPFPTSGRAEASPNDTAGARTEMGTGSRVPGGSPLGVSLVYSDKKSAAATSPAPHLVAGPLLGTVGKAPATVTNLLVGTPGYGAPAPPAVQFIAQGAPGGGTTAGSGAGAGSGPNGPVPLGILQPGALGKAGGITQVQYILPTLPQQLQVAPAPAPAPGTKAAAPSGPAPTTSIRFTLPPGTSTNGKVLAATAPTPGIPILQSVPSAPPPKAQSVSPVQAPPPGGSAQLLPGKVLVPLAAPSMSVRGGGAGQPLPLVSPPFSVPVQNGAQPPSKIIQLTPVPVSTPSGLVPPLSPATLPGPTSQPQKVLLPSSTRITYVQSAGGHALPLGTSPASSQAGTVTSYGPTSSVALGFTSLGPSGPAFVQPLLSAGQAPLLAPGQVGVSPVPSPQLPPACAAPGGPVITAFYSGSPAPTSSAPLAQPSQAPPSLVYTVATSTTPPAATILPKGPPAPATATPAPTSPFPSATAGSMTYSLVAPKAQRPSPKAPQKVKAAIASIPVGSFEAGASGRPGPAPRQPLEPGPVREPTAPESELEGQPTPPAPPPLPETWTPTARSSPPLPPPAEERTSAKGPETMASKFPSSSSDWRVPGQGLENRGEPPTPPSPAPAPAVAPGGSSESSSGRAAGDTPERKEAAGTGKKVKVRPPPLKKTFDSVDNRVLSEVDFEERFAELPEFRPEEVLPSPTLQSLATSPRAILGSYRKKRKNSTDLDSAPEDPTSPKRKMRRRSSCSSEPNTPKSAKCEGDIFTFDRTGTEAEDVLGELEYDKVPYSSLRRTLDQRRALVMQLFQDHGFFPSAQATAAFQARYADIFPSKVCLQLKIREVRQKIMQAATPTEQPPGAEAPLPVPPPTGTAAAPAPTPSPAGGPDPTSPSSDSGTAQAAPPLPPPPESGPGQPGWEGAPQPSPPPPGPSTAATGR

This experiment deals with T1, GFP-tagged ETS2 repressor factor (ERF) (human) (UniProt P50548).
T1 sequence: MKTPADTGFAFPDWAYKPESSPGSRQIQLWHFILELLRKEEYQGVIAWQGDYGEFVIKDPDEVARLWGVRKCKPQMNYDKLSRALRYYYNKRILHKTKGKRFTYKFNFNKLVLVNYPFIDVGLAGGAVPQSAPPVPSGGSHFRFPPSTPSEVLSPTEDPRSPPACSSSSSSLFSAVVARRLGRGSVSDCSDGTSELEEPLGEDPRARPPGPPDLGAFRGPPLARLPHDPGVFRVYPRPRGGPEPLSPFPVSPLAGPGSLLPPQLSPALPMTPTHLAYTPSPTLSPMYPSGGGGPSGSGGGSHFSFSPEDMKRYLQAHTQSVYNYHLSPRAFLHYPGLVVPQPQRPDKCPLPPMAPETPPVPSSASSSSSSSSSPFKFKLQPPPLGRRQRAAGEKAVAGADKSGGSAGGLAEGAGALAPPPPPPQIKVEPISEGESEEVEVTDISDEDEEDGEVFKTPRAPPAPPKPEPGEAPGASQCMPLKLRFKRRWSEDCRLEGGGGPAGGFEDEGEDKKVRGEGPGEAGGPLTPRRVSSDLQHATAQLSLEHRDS
Nature of the experiment: co-IP; 293T cells transfected with GFP-tagged ERF for 48 hr; lysate incubated with anti-GFP magnetic beads (or IgG on Dynabeads Protein G) overnight at 4 °C; blotted for GFP or CIC.

No constants are given. Whether binding was seen depends on the method and setting. In cells and extracts the contact can be indirect. Tags and fused reporters may be left off the sequences shown.

Turning to “Capicua (CIC), detected by CIC antibody in 293T lysate (from UniProt Q96RK0 1-2517)”, the binding entry was “no binding”.
